Measured values published in PMC5852081, “The preprophase band-associated kinesin-14 OsKCH2 is a processive minus-end-directed microtubule motor” (Nature Communications, 2018).
No constants are given. Whether binding was seen depends on the method and setting. Binding calls can cover weak binding; strength is not graded here. Tags and fused reporters may be left off the sequences shown.

Biological target: taxol-stabilized microtubules polymerized from unlabeled tubulin
Assay: co-sedimentation; purified KCH construct mixed with taxol-stabilized microtubules, BRB80/25 mM KCl, 40 µM taxol, room temperature 30 min, 100,000 x g 20 min at 37 °C; Coomassie SDS-PAGE of supernatant and pellet; both purified

binding: binds weakly
B1: GFP-OsKCH1(292–744) (domain or fragment, O. sativa, UniProt Q0IMS9 292-744, looked up)
chain: GEVKQFQLEAQTNFDVQQKQIQELKGALSFVKSGMEQLRLQYSEEFAKLGKHFYTLSNAASSYHKVLEENRKLYNQIQDLKGNIRVYCRVRPFLPGHRSLSSSVADTEERTITIITPTKYGKDGCKSFSFNRVFGPASTQEEVFSDMQPLIRSVLDGFNVCIFAYGQTGSGKTFTMSGPKVLTEESLGVNYRALNDLFNIKAQRKGTIDYEISVQMIEIYNEQVRDLLQDGGNRRLEIRNTPQKGLAVPDASIVPVTSTADVVELMNQGQKNRAVGSTAINDRSSRSHSCLSVHVQGKYLTSGAMLRGCMHLVDLAGSERVDKSEVVGDRLKEAQYINKSLSALGDVIASLAQKNSHVPYRNSKLTQLLQDSLGGQAKTLMFVHVSPELDAVGETISTLKFAERVASVELGAAKANKEGSEVRELKEQIATLKAALAKKEGEPENIQSTQSSP
notes: codon-optimized synthetic cDNA; source: E. coli BL21 Rosetta (DE3), purified (Talon beads); not shown: GFP, N-terminal, kept
